Data on seven targets can be found in the supplement of paper PMC12819154, “High-throughput peptide-centric local stability assay extends protein–ligand identification to membrane proteins, tissues and bacteria” (Nature Structural & Molecular Biology, 2025).

By UniProt entry, the sequences of proteins in these tests, tags left out. Where a name states a change or a piece, a line headed by the entry shows the natural chain unless it says otherwise.
UniProt Q8N9E0: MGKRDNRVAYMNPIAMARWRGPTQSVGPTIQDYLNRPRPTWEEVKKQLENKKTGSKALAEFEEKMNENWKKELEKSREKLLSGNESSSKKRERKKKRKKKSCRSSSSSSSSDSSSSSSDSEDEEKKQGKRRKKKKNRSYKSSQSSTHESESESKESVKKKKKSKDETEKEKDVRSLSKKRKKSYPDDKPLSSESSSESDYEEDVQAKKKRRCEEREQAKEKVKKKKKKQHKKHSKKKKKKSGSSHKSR
UniProt Q8N960: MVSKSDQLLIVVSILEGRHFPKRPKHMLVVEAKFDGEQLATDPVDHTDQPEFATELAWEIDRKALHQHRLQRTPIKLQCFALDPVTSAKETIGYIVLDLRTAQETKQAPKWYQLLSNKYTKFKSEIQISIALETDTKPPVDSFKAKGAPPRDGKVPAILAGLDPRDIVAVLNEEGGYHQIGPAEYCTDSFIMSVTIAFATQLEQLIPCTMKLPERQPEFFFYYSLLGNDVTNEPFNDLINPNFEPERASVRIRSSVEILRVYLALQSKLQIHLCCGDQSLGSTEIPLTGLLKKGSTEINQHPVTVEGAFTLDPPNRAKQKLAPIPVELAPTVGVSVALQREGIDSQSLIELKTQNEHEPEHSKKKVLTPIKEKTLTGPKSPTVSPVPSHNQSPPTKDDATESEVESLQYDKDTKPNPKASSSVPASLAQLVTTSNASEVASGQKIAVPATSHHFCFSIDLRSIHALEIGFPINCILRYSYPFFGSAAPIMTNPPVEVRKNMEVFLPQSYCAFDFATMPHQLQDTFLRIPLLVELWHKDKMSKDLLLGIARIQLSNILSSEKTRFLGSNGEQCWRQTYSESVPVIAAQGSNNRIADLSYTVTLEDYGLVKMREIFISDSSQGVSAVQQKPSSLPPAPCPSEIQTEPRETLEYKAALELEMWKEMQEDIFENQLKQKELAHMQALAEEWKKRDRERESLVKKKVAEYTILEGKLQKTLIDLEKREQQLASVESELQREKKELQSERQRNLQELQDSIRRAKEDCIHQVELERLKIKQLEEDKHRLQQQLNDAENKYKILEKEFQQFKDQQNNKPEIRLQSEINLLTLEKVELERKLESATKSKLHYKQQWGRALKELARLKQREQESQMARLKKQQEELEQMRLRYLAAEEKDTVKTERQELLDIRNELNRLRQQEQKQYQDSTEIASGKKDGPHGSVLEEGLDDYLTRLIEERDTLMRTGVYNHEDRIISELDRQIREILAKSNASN
UniProt Q8NFQ8: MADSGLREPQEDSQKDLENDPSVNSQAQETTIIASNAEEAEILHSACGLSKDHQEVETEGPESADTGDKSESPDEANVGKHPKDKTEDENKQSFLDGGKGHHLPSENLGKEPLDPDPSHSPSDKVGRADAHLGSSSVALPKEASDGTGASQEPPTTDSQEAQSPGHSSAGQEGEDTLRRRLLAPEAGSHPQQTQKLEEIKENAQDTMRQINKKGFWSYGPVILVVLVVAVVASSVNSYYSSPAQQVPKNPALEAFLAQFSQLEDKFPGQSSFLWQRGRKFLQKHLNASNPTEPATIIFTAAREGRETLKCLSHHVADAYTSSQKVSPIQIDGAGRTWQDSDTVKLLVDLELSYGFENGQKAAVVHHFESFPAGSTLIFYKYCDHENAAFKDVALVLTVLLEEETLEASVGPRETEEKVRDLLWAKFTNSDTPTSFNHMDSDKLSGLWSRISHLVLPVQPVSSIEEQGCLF
UniProt Q8N4P3, whole entry: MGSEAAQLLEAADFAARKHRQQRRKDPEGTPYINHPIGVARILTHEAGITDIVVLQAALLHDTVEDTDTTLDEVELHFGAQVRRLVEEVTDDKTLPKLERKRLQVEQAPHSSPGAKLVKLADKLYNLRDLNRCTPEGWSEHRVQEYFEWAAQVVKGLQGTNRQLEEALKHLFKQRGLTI
UniProt Q8NB42: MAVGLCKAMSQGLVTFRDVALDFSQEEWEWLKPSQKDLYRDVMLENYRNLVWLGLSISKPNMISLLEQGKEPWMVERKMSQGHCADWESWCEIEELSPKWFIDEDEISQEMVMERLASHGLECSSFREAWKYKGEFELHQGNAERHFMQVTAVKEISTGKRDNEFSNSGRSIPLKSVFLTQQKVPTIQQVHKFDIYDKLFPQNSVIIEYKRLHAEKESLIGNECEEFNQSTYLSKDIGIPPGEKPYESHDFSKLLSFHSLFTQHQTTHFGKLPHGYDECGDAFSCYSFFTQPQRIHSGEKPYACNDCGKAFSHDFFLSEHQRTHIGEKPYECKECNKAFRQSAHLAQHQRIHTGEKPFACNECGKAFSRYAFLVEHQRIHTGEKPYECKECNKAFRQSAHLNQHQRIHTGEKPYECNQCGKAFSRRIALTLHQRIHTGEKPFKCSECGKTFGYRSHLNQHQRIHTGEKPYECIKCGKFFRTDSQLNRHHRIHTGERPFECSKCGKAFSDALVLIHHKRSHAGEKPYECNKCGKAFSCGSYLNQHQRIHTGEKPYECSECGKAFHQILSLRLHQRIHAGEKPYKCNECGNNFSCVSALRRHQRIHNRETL
UniProt Q8NHY6: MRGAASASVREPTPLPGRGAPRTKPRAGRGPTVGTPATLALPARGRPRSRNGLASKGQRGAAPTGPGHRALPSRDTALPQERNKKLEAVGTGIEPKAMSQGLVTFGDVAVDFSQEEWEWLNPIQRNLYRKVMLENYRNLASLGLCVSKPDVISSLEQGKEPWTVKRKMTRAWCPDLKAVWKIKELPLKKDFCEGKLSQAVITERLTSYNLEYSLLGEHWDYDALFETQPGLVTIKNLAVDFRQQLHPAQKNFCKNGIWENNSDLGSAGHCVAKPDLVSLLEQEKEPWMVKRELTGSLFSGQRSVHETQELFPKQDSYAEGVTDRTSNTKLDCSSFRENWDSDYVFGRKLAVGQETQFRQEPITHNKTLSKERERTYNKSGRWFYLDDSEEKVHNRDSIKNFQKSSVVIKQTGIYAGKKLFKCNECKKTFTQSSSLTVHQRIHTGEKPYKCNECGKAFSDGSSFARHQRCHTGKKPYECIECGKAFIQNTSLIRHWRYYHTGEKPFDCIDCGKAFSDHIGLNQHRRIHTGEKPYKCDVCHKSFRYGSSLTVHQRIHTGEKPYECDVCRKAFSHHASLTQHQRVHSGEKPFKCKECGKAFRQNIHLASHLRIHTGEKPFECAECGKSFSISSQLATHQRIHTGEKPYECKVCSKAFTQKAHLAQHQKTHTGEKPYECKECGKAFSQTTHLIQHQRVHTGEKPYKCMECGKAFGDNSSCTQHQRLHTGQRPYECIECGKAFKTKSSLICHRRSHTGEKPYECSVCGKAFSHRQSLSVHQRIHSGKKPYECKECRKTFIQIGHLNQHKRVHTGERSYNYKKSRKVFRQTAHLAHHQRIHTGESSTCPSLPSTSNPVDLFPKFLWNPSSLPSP
UniProt Q8N4T8: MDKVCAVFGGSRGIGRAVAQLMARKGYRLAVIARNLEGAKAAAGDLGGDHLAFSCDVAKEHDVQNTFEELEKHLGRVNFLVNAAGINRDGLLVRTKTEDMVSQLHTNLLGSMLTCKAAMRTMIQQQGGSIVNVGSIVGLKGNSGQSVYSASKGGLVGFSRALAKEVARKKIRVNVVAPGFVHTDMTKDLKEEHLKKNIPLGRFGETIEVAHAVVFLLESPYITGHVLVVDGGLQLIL

The list shows a part of the results. Small differences around the control level are noise.

Compound in this experiment: CN[C@@H]1C[C@H]2O[C@@](C)([C@@H]1OC)n1c3ccccc3c3c4c(c5c6ccccc6n2c5c31)C(=O)NC4 [staurosporine]
The experiment is described as follows: log2 fold change of tryptic peptide abundance, ligand vs vehicle (limited proteolysis) (log2 ratio); higher = more trypsin-susceptible (destabilized). The conditions noted are these: ligand concentration: 20 uM; sample: K562 cleared lysate; digestion: 4 min, 22 C (HT-PELSA RT4min, Orbitrap Astral).
For “UniProt Q8N9E0 (peptide sequence: ALAEFEEK, peptide start residue: 57)”, the log2 fold change is -0.0379.

For the target “CEP120 (peptide sequence: DGPHGSVLEEGLDDYLTR, peptide start residue: 930) (UniProt Q8N960)”, the log2 fold change was -0.696. With “TOR1AIP2 (peptide sequence: LLAPEAGSHPQQTQK, peptide start residue: 181) (UniProt Q8NFQ8)” the figure was -0.0677; with “HDDC3 (peptide sequence: LQVEQAPHSSPGAK, peptide start residue: 103) (UniProt Q8N4P3)”, 0.17; with “UniProt Q8NB42 (peptide sequence: THIGEKPYECK, peptide start residue: 181)”, 0.338. The value for “UniProt Q8NHY6 (peptide sequence: KVMLENYR, peptide start residue: 62)” was 0.206; that for “CBR4 (peptide sequence: VNVVAPGFVHTDMTK, peptide start residue: 173) (UniProt Q8N4T8)” was 0.189.
